Results: patent publication US20230042176A1, “METHOD FOR TREATING ANGELMAN SYNDROME AND RELATED DISORDERS” (priority 2019, published 2023)
At least one structure is not confirmed: it was looked up by name or label, or the drawing left a doubt.

Tested on: WT and UBE3A KO human induced neurons
Assay: Whole cell patch clamp recordings of human induced neurons (fAHP amplitude, AP firing frequency)
Type: cell-based
Settings: apamin 200 nM

Compound: CC(C)C[C@@H]1NC(=O)[C@H](C)NC(=O)[C@H]([C@@H](C)O)NC(=O)[C@H](CCC(=O)O)NC(=O)[C@@H]2CCCN2C(=O)[C@H](C)NC(=O)[C@H](CCCCN)NC(=O)[C@@H]2CSSC[C@@H](C(=O)N[C@@H](CCC(N)=O)C(=O)N[C@@H](CCC(N)=O)C(=O)N[C@@H](Cc3cnc[nH]3)C(N)=O)NC(=O)[C@H](CCCNC(=N)N)NC(=O)[C@H](CCCNC(=N)N)NC(=O)[C@H](C)NC(=O)[C@H](CSSC[C@H](N)C(=O)N[C@@H](CC(N)=O)C(=O)N2)NC1=O [apamin]
- differences in fAHP amplitude and AP firing frequency between KO and WT neurons: but not
